Reference: patent US9376391B2, “Difluoromethyl-nicotinic-tetrahydronaphthyl carboxamides as fungicides” (BAYER CROPSCIENCE AKTIENGESELLSCHAFT, priority 2012, dated 2016)

Experiment: log P by HPLC on reversed phase columns (EEC directive 79/831 Annex V.A8)
Assay type: physicochemical
Conditions: Table 1, formula (I); HPLC/LC-MS at pH 2.7, 0.1% formic acid in water / acetonitrile, gradient 10% to 95%

logP^[a]: 4.41^[a]
Structure (SMILES): Cc1cnc(C(F)F)c(C(=O)Nc2cccc3c2CC(C(C)C)C3(C)C)c1 (racemic) [Example 44]
